Measured values reported in US5648259A, “Polypeptides having NMDA receptor activity, nucleic acids encoding those polypeptides and applications” (priority 1992, dated 1997).
At least one structure is not confirmed: it was looked up by name or label, or the drawing left a doubt.

Test system: GR33 polypeptide SEQ ID No. 2
Experiment: Pharmacological and electrophysiological study of Xenopus eggs microinjected with GR33 mRNA (induced current under applied potential)
Format: cell-based, rat
Description: The cDNA fragment isolated in Example 2 was transcribed into mRNA and microinjected into Xenopus eggs. The microinjected eggs thereby obtained were then tested for their capacity to bind certain labelled NMDA receptor ligands, or for their behaviour with respect to modulators of NMDA receptors.
The plasmid containing the 1.7-kb cDNA coding for the GR33 polypeptide SEQ ID No. 2 was linearized in the presence of the enzyme SmaI, and then subjected to a transcription step in the presence of phage T7 RNA polymerase. Transcription was performed using the Stratagene Kit according to the manufacturer's recommendations.
The synthetic RNA obtained above, dissolved in sterile water, was used (5 ng) for injection into mature Xenopus eggs (stages V and VI) in a volume of 50 nl. The eggs were then maintained for 3 days at 19° C. in multi well plates in a Barth medium supplemented with antibiotics (Miledi and Sumikawa, Biomed. Res. 3 (1982) 390).
The eggs thereby obtained were then tested for the presence of functional NMDA receptors at their surface. For this purpose, the eggs were transferred to modified OR-2 medium lacking magnesium, of composition: 88 mM NaCl, 2.5 mM KCl, 1 mM CaCl2, 10 mM HEPES buffer, pH 7.4 adjusted with sodium hydroxide. The different drugs (ligands or modulators) were applied by perfusion (10 ml/min) for 10-30 seconds under an applied potential difference of -80 or -90 mV.

In the case of `CN[C@H](CC(=O)O)C(=O)O` [NMDA, N-methyl-D-aspartate], the “induction of inward current” value (100 μM NMDA) is reported as “induces an inward current”, the “induction of inward current” value (NMDA 200 μM, perfusion 10-30 s, -80 or -90 mV) is reported as “induces an inward current” and the “response induced by NMDA (200 μM) when the medium does not contain glycine” value (no glycine, NMDA 200 μM) is reported as “abolished”. For the same compound, the “response to NMDA in the absence of glycine from the medium” value (no glycine, NMDA concentration not stated) was “inhibits the response to NMDA almost completely”.
